Data taken from patent US8268848B2, “Cyclopropane compound” (Eisai R&D Management Co., Ltd., priority 2010, dated 2012).
Some results were stated once for a whole list of compounds, not compound by compound.

Tested on: mice (C57BL/6NCrlCrLj)
Experiment: Sleep experiment (EEG/EMG) in mice
Format: in vivo
Conditions: oral, doses 0.3 to 100 mg/kg, accumulated sleep time within three hours after administration
Experimental: As a method for measuring the influence of the present compound on sleep time, electroencephalogram (EEG) and electromyogram (EMG) measurements were carried out in mice (C57BL/6NCrlCrLj).
In order to measure brain waves and muscle signals, EEG and EMG electrode implantation was performed on individual mice, and the mice were then housed in a state in which they could freely move and habituate in individual recording cages for 1 week or longer. Thereafter, amplified EEG and EMG signals were digitally recorded.
Mice received either oral administration of vehicle or test compound in vehicle, after which sleep/wake behavior of mice was recorded for 3 hours.
For sleep analysis, automatic analysis software from Kissei Comtec Co., Ltd. was used to analyze EEG frequency and EMG activity signals in detail and to determine sleep and wake states. Thereafter, accumulated sleeping time over 3 hours was calculated.
The effect of the compound to increase sleep time was evaluated as the difference between sleeping time on the vehicle-administration day and the sleep time on the subsequent drug-administration day.
The minimum effective dose (MED; mg/kg) was obtained from accumulated sleep time of mice with three hours after the administration.

Cc1ncc(OC[C@@]2(c3cccc(F)c3)C[C@H]2C(=O)Nc2cc(C)c(F)cn2)c(C)n1 [Example 82, (1R,2S)-2-{[(2,4-dimethylpyrimidin-5-yl)oxy]methyl}-N-(5-fluoro-4-methylpyridin-2-yl)-2-(3-fluorophenyl)cyclopropanecarboxamide]
minimum effective dose (MED): 1 to 3 mg/kg
